Taken from: PubChem BioAssay AID743121 (NCATS, 2013)

- Assay: 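Knock-downs that sensitise breast cancer cells to camptothecin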 (primary screen)
- Cells: MDA-MB-231 cells, a human breast cancer line
- Reagent: single siRNA against human genes, 20 nM siRNA (0.8 pmol per well)
- Timing: 120 h (drug added 48 h after transfection, read 72 h later)
- Treatment: camptothecin 20 nM (about EC30) for 72 h; vehicle 0.1% DMSO in parallel plates
- Read-out: 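CellTiter-Glo ATP signal, scaled to control siRNA as percent viability; sensitisation given as log2 of untreated divided by camptothecin-treated viability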
- Reading the numbers: log2 vehicle/camptothecin viability: higher = stronger sensitisation to camptothecin; viability with camptothecin and viability without drug: higher = more viable cells
- Call rule: 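Active genes have an RSA gene-level p-value below 0.001, computed from the ratios of their separate siRNAs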
Here is one part, drawn at random, of about 26,000 reagents tested. Of all reagents, 167 (0.63%) were called active. 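Calls are per gene from RSA p-values that are not deposited; an individual active-marked siRNA can sensitise only weakly.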 Entries without a mark were called inactive. Reagents against one gene are numbered here. No sequences are given here.

gene | reagent no. | log2 vehicle/camptothecin viability | viability with camptothecin (% of control) | viability without drug (% of control)
PCNA (proliferating cell nuclear antigen) | 1 | -0.31 | 68 | 54.8
PCNA (proliferating cell nuclear antigen) | 2 | -0.854 | 64.7 | 35.8
PCNA (proliferating cell nuclear antigen) | 3 | -0.785 | 69.4 | 40.3
PCNA (proliferating cell nuclear antigen) | 4 | -0.685 | 99.3 | 61.7
PITPNM1 (phosphatidylinositol transfer protein membrane associated 1) | 1 | -0.661 | 74.7 | 47.2
PITPNM1 (phosphatidylinositol transfer protein membrane associated 1) | 2 | -0.0637 | 85.4 | 81.7
PITPNM1 (phosphatidylinositol transfer protein membrane associated 1) | 3 | -0.274 | 64.1 | 53
PITPNM1 (phosphatidylinositol transfer protein membrane associated 1) | 4 | -0.294 | 108 | 88
SSU72 (SSU72 homolog, RNA polymerase II CTD phosphatase) | 1 | -0.307 | 83.6 | 67.5
SSU72 (SSU72 homolog, RNA polymerase II CTD phosphatase) | 2 | -0.22 | 90.3 | 77.6
SSU72 (SSU72 homolog, RNA polymerase II CTD phosphatase) | 3 | 0.502 | 27.2 | 38.5
SSU72 (SSU72 homolog, RNA polymerase II CTD phosphatase) | 4 | -0.217 | 73.7 | 63.4
IFNB1 (interferon beta 1) | 1 | -0.344 | 75.5 | 59.5
IFNB1 (interferon beta 1) | 2 | -0.381 | 132 | 101
IFNB1 (interferon beta 1) | 3 | 0.106 | 91.7 | 98.7
IFNB1 (interferon beta 1) | 4 | -0.0146 | 59.5 | 58.9
EPO (erythropoietin) | 1 | -0.129 | 96.8 | 88.5
EPO (erythropoietin) | 2 | -0.02 | 71 | 70
EPO (erythropoietin) | 3 | -0.107 | 56.9 | 52.8
EPO (erythropoietin) | 4 | 0.12 | 43.2 | 46.9
STC2 (stanniocalcin 2) | 1 | -0.368 | 46.2 | 35.8
STC2 (stanniocalcin 2) | 2 | -0.291 | 30.7 | 25.1
STC2 (stanniocalcin 2) | 3 | -0.0405 | 77 | 74.9
STC2 (stanniocalcin 2) | 4 | -0.129 | 56.8 | 52
PHF14 (PHD finger protein 14) | 1 | -0.336 | 64.8 | 51.4
PHF14 (PHD finger protein 14) | 2 | 0.678 | 27.1 | 43.4
PHF14 (PHD finger protein 14) | 3 | -0.214 | 94 | 81.1
PHF14 (PHD finger protein 14) | 4 | -0.168 | 110 | 98
GABARAP (GABA type A receptor-associated protein) | 1 | -0.0845 | 101 | 95.6
GABARAP (GABA type A receptor-associated protein) | 2 | -0.202 | 27.1 | 23.6
GABARAP (GABA type A receptor-associated protein) | 3 | -0.0429 | 50.6 | 49.1
GABARAP (GABA type A receptor-associated protein) | 4 | -0.196 | 85.4 | 74.5
SCYL3 (SCY1 like pseudokinase 3) | 1 | -0.651 | 61.9 | 39.5
SCYL3 (SCY1 like pseudokinase 3) | 2 | -0.514 | 65.7 | 46
SCYL3 (SCY1 like pseudokinase 3) | 3 | -0.392 | 87 | 66.3
SCYL3 (SCY1 like pseudokinase 3) | 4 | -0.42 | 96.2 | 71.9
SCYL3 (SCY1 like pseudokinase 3) | 5 | -0.269 | 118 | 98
LYST (lysosomal trafficking regulator) | 1 | -0.123 | 70.1 | 64.3
LYST (lysosomal trafficking regulator) | 2 | -0.388 | 104 | 79.7
LYST (lysosomal trafficking regulator) | 3 | -0.0802 | 103 | 97
LYST (lysosomal trafficking regulator) | 4 | -0.189 | 112 | 98.3
ID1 (inhibitor of DNA binding 1) | 1 | -0.647 | 62.3 | 39.8
ID1 (inhibitor of DNA binding 1) | 2 | -0.157 | 96 | 86.1
ID1 (inhibitor of DNA binding 1) | 3 | -0.564 | 73.1 | 49.5
CASP6 (caspase 6) | 1 | 0.204 | 74.3 | 85.6
CASP6 (caspase 6) | 2 | 0.184 | 29 | 32.9
CASP6 (caspase 6) | 3 | -0.216 | 91.1 | 78.4
CASP6 (caspase 6) | 4 | -0.212 | 77.7 | 67.1
RARS2 (arginyl-tRNA synthetase 2, mitochondrial) | 1 | 0.5 | 57.6 | 81.4
RARS2 (arginyl-tRNA synthetase 2, mitochondrial) | 2 | -0.342 | 93.3 | 73.6
RARS2 (arginyl-tRNA synthetase 2, mitochondrial) | 3 | -0.247 | 107 | 90.1
RARS2 (arginyl-tRNA synthetase 2, mitochondrial) | 4 | -0.233 | 105 | 89.6
KCNQ2 (potassium voltage-gated channel subfamily Q member 2) | 1 | -0.201 | 87.2 | 75.8
KCNQ2 (potassium voltage-gated channel subfamily Q member 2) | 2 | -0.336 | 121 | 96.2
KCNQ2 (potassium voltage-gated channel subfamily Q member 2) | 3 | 0.00136 | 49.3 | 49.3
KCNQ2 (potassium voltage-gated channel subfamily Q member 2) | 4 | -0.0135 | 40.4 | 40
DLD (dihydrolipoamide dehydrogenase) | 1 | -0.214 | 117 | 101
DLD (dihydrolipoamide dehydrogenase) | 2 | -0.427 | 69.4 | 51.6
DLD (dihydrolipoamide dehydrogenase) | 3 | -0.411 | 77.2 | 58
DLD (dihydrolipoamide dehydrogenase) | 4 | -0.455 | 98.7 | 72
GPR34 (G protein-coupled receptor 34) | 1 | -0.0239 | 61.4 | 60.4
GPR34 (G protein-coupled receptor 34) | 2 | 0.371 | 62.6 | 80.9
GPR34 (G protein-coupled receptor 34) | 3 | 0.0281 | 105 | 107
GPR34 (G protein-coupled receptor 34) | 4 | 0.634 | 36.7 | 56.9
CDH19 (cadherin 19) | 1 | -0.214 | 82.3 | 70.9
CDH19 (cadherin 19) | 2 | 0.0212 | 96.9 | 98.4
CDH19 (cadherin 19) | 3 | 0.647 | 28.6 | 44.9
CDH19 (cadherin 19) | 4 | -0.232 | 65.8 | 56
APLP1 (amyloid beta precursor like protein 1) | 1 | -0.171 | 92.8 | 82.5
APLP1 (amyloid beta precursor like protein 1) | 2 | -0.16 | 115 | 103
APLP1 (amyloid beta precursor like protein 1) | 3 | -0.513 | 101 | 70.5
APLP1 (amyloid beta precursor like protein 1) | 4 | -0.431 | 92 | 68.3
FEM1A (fem-1 homolog A) | 1 | -0.197 | 63.8 | 55.7
FEM1A (fem-1 homolog A) | 2 | -0.178 | 59.2 | 52.3
FEM1A (fem-1 homolog A) | 3 | -0.516 | 47 | 32.8
PRKCH (protein kinase C eta) | 1 | -0.114 | 61.1 | 56.4
PRKCH (protein kinase C eta) | 2 | -0.282 | 82.3 | 67.7
PRKCH (protein kinase C eta) | 3 | -0.246 | 87.3 | 73.6
PRKCH (protein kinase C eta) | 4 | 0.0322 | 96.4 | 98.6
TFF2 (trefoil factor 2) | 1 | 0.0221 | 85.5 | 86.8
TFF2 (trefoil factor 2) | 2 | -0.162 | 81.9 | 73.2
TFF2 (trefoil factor 2) | 3 | -0.11 | 59.7 | 55.3
TFF2 (trefoil factor 2) | 4 | -0.239 | 108 | 91.7
REN (renin) | 1 | -0.16 | 79.8 | 71.4
REN (renin) | 2 | 0.216 | 42.5 | 49.3
REN (renin) | 3 | -0.364 | 77.4 | 60.2
REN (renin) | 4 | 0.0593 | 91.5 | 95.3
